Results as given in PMC7333892, “Identification of a PGXPP degron motif in dishevelled and structural basis for its binding to the E3 ligase KLHL12” (Open Biology, 2020).
Results are given in words; binding and its absence hold for the method and conditions named.

Key:
[1] = target: T1, FITC-labelled DVL1 peptide, residues 650-669 (human) (UniProt O14640); assay: fluorescence polarisation; 40 nM FITC-labelled peptide, Kelch domain protein titrated; 50 mM HEPES pH 7.5, 300 mM NaCl, 0.5 mM TCEP, 0.01% Triton-X; hyperbolic fit, n = 3; both purified
T1 sequence (peptide, FITC on the N-terminus): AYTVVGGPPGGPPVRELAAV

[2] = target: T2, DVL1 20-mer peptide, residues 650-669, printed on the SPOT array (spot A13) (human) (UniProt O14640); assay: peptide or protein array; initial DVL1 SPOT array: 20-mer peptides on cellulose membrane, incubated with 0.4 µM His6-tagged Kelch domain protein in PBS for 1 h at 4°C, bound protein detected with HRP-conjugated anti-His antibody; both purified
T2 sequence (peptide): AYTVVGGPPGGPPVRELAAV

B1: Human KLHL7 Kelch domain (residues 283-586) (domain or fragment, UniProt Q8IXQ5-1 283-586)
chain: GTRPRRKKHDYRIALFGGSQPQSCRYFNPKDYSWTDIRCPFEKRRDAACVFWDNVVYILGGSQLFPIKRMDCYNVVKDSWYSKLGPPTPRDSLAACAAEGKIYTSGGSEVGNSALYLFECYDTRTESWHTKPSMLTQRCSHGMVEANGLIYVCGGSLGNNVSGRVLNSCEVYDPATETWTELCPMIEARKNHGLVFVKDKIFAVGGQNGLGGLDNVEYYDIKLNEWKMVSPMPWKGVTVKCAAVGSIVYVLAGFQGVGRLGHILEYNTETDKWVANSKVRAFPVTSCLICVVDTCGANEETLET
With B1 the binding [1] was “no binding” and the binding [2] was “no binding (tested: 0.4 µM)”.
